Reference: paper PMC7005284

The chains behind the UniProt entries cited, without tags or fusion partners. Where a name states a change or a piece, a line headed by the entry shows the natural chain unless it says otherwise. Residues count along the entry.
UniProt Q60751, residues 31-1373: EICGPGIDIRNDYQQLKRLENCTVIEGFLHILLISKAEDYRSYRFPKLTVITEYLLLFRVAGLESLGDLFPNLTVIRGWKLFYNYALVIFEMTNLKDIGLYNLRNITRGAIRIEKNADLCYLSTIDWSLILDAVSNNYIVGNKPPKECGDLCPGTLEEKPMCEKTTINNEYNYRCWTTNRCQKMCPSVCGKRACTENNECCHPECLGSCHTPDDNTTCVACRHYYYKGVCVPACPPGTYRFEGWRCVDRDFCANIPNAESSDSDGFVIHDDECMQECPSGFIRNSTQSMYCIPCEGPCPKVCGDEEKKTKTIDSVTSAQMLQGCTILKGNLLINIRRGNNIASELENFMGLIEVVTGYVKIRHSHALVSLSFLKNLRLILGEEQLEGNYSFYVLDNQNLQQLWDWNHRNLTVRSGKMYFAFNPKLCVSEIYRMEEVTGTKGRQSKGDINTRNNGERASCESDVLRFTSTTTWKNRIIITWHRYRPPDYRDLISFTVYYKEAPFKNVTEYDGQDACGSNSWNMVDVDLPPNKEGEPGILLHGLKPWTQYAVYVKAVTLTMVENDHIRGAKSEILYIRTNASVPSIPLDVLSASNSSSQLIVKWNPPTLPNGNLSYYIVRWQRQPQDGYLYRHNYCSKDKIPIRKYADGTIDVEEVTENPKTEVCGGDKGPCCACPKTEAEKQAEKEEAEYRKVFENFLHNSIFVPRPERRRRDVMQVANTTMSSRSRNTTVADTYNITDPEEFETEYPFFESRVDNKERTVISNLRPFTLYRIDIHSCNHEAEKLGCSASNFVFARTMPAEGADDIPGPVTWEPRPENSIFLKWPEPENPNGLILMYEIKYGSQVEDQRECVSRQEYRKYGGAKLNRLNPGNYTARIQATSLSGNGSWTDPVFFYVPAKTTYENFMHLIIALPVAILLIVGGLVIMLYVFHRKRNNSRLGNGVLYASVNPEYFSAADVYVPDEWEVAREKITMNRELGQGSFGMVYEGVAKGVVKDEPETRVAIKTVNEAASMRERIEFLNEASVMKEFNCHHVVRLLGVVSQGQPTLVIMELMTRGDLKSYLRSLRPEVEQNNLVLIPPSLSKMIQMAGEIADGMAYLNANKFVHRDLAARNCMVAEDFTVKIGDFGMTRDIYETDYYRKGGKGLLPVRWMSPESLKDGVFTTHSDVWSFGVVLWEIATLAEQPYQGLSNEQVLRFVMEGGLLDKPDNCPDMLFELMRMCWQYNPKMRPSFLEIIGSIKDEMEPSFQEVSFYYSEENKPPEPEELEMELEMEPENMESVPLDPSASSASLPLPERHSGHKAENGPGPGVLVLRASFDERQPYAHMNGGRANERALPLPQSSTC
UniProt P51437: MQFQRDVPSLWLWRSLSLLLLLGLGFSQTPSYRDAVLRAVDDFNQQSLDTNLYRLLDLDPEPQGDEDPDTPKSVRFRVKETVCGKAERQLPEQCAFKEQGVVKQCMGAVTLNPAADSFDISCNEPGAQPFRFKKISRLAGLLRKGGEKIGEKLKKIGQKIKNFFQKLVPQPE

Biological target: Flag-IGFR1 (insulin-like growth factor 1 receptor) (UniProt Q60751)
Assay: co-IP; NRCMs co-transfected with psicoR-HA-CRAMP and psicoRFlag-IGFR1 or psicoRFlag-TLR9; lysed in immunoprecipitation buffer; A/G agarose beads and 1 ug antibody overnight at 4 °C; which partner was precipitated is not told

binding: binds
Substance: HA-CRAMP (cathelicidin-related antimicrobial peptide) (from UniProt P51437)

No constants are given. Whether binding was seen depends on the method and setting. In cells and extracts the contact can be indirect. Binding calls can cover weak binding; strength is not graded here.
